# According to PubChem BioAssay (EPA / NIEHS):
# By UniProt entry, the sequences of proteins in these tests, tags left out. Where a name states a change or a piece, a line headed by the entry shows the natural chain unless it says otherwise.
# UniProt P37231: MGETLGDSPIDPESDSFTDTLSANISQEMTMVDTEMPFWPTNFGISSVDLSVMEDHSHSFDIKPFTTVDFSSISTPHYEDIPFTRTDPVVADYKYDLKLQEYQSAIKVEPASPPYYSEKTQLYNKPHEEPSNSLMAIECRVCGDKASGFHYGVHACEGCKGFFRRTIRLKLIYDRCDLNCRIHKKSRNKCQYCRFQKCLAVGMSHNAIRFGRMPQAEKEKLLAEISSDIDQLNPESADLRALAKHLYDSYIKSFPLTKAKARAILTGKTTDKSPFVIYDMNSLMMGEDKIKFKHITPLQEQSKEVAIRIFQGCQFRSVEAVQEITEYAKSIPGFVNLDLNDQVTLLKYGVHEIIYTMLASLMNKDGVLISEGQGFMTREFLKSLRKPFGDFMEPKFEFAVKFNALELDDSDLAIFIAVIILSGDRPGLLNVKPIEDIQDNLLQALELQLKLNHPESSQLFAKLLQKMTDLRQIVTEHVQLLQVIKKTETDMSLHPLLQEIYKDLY
# UniProt P51449: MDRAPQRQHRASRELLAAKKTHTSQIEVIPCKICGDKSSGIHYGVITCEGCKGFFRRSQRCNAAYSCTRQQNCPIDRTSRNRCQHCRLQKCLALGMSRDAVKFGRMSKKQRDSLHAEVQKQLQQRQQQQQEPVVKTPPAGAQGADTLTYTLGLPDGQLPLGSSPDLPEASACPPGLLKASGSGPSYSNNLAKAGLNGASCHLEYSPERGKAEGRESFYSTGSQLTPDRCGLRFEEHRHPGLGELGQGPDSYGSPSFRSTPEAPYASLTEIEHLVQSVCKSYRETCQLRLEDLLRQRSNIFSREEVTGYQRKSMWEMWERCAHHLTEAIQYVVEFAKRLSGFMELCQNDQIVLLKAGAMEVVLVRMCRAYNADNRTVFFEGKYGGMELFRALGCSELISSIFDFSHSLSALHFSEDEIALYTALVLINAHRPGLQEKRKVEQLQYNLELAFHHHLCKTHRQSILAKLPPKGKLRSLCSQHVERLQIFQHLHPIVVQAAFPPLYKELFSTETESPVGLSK
# UniProt P19793: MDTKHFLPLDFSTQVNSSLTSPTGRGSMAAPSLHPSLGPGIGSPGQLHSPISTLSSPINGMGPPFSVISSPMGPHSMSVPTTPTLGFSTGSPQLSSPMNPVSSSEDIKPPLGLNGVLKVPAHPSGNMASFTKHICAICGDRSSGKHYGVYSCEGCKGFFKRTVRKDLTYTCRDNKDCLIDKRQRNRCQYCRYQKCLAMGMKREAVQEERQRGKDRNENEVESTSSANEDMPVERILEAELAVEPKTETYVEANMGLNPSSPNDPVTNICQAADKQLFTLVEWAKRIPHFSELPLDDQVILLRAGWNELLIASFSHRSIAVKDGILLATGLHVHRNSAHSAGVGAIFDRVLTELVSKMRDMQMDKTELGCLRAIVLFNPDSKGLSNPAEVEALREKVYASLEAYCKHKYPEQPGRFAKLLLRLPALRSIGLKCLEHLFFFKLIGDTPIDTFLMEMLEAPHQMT
# UniProt P28702: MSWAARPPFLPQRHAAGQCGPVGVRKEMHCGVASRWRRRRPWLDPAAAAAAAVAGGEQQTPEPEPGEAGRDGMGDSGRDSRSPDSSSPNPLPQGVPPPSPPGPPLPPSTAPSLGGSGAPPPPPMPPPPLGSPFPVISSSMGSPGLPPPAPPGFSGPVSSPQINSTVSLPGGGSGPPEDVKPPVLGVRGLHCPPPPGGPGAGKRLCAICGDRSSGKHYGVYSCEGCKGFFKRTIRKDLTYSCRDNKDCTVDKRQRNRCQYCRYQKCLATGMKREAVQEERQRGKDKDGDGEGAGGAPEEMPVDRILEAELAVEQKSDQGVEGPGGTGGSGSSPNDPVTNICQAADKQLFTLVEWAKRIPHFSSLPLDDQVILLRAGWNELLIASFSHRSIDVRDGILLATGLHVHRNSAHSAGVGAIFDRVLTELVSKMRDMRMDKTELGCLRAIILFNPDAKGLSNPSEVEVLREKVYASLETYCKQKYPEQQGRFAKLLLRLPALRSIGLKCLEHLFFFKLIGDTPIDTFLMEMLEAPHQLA
# UniProt O75469: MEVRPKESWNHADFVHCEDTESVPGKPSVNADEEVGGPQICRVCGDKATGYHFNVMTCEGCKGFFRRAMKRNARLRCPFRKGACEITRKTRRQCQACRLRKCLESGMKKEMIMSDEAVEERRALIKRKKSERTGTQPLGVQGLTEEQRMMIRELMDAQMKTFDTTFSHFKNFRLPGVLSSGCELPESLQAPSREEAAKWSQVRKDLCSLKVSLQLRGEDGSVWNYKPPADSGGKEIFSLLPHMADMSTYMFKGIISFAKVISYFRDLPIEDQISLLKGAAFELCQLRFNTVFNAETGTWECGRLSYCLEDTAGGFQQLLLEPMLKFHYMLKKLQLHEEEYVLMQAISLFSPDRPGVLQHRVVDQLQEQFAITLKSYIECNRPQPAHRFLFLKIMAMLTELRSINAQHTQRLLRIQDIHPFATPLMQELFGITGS
# UniProt P10827: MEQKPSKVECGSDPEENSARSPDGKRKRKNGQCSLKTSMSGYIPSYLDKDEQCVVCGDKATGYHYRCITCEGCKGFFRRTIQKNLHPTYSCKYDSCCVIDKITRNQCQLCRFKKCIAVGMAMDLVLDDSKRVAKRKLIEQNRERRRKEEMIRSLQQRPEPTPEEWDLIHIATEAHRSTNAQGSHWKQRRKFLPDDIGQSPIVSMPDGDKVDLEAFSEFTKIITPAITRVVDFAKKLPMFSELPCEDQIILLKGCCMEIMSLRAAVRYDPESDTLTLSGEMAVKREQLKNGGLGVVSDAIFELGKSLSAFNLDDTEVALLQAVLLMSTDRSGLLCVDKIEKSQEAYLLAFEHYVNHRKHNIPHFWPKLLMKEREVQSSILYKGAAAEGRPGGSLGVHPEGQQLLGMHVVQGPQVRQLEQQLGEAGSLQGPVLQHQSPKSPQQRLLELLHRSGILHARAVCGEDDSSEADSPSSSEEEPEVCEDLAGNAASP
# UniProt P11473: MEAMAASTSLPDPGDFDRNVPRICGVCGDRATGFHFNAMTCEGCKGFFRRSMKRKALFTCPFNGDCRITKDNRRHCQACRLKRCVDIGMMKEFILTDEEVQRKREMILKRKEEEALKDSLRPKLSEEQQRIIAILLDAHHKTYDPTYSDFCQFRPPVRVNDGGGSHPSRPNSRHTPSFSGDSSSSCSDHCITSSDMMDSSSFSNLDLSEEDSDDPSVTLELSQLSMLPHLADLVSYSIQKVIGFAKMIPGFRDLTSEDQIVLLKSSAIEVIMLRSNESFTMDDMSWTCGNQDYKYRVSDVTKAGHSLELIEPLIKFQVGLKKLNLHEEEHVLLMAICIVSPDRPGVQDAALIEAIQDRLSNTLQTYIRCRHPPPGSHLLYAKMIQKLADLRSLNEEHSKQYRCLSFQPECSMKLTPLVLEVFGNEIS
# UniProt P13631, whole entry, looked up: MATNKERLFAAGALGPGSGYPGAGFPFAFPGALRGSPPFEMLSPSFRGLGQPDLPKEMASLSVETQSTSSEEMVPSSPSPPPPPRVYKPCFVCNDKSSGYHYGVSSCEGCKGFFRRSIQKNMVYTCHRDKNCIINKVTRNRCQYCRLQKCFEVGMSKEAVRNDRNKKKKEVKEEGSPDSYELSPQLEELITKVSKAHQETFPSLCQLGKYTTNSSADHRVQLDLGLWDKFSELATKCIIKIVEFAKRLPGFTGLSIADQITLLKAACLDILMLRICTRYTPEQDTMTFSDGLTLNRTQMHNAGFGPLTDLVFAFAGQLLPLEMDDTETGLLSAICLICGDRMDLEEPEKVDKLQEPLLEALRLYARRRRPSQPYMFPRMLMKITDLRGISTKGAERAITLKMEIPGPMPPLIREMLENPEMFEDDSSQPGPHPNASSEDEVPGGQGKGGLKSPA
# UniProt Q92753: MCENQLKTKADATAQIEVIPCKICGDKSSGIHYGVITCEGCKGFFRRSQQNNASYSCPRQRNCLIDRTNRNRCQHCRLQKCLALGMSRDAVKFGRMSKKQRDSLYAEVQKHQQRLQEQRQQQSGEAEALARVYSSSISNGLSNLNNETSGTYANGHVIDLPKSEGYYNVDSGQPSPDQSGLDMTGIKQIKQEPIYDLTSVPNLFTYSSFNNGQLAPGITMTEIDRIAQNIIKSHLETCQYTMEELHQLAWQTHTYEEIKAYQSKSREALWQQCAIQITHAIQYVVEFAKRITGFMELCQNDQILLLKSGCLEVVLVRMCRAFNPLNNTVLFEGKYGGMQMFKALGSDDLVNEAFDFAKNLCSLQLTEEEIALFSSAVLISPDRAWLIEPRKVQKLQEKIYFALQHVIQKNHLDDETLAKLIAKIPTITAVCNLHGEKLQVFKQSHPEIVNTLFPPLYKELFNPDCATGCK
# UniProt P11511: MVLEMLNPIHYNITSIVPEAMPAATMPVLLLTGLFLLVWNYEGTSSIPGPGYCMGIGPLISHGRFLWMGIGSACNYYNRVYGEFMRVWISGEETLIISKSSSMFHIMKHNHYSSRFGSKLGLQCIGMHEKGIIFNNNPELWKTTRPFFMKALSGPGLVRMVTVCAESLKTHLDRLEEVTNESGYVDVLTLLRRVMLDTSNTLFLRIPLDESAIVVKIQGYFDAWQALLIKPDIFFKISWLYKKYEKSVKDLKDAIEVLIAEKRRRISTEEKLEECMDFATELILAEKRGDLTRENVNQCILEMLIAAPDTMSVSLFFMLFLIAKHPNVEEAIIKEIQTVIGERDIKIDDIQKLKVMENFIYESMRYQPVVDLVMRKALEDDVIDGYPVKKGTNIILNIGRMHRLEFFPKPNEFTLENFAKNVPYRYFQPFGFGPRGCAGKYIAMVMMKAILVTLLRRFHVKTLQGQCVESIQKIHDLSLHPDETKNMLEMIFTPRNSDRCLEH
# Where “and” joins values, the source holds several entries; their conditions need not be identical. Equal entries are not always repeated. The inconclusive results got no clear call from the source; some entries with a clear call stand among them for comparison. A potency beside an inconclusive call is a rough fit, not a confirmed value. Where a structure was tested more than once in an assay, its records may differ in their call. Calls of active or inactive are those of the source. The calls were made as follows: active = hit-call score of the fitted dose curve at least 0.9, where 1 is the maximum; inconclusive = response in the unintended direction; inactive = score below 0.9.
# Assays:
# [1] = molecular target: Peroxisome proliferator-activated receptor gamma (Homo sapiens) (UniProt P37231); assay: ATG_PPARg_TRANS: Attagene TRANS-FACTORIAL HepG2 Assay for human Peroxisome Proliferator-activated Receptor-gamma (PPARg) (AID 2283007)
# Outline: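 Multiplexed reporter transcription units in HepG2, 24 h dosing, reporter transcripts quantified by fluorescent RT-PCR and capillary electrophoresis. Increase over DMSO scored.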
# [2] = molecular target: human RAR-related Orphan Receptor gamma (RORg), RORC (gene 6097) (UniProt P51449); assay: ATG_RORg_TRANS: Attagene TRANS-FACTORIAL HepG2 Assay for human RAR-related Orphan Receptor gamma (RORg) (AID 2283011);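 as to AC50: potency for induction of reporter transcripts above DMSO so activators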
# Outline: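 Chimeric RORg-Gal4 transactivation in transfected HepG2; 24 h exposure; RT-PCR/capillary electrophoresis readout of reporter mRNA, DMSO baseline.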
# [3] = molecular target: Retinoic acid receptor RXR-alpha (Homo sapiens) (UniProt P19793); assay: ATG_RXRa_TRANS: Attagene TRANS-FACTORIAL HepG2 Assay for human Retinoid X Receptor alpha (RXRa) (AID 2283012)
# Outline: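 Transient transfection of human HepG2 with multiple GAL4-UAS reporter constructs; 24 h compound exposure; total RNA isolated, reverse-transcribed, PCR-amplified, 6-FAM labelled, HpaI-cut, resolved by capillary electrophoresis. Positive-direction fit versus DMSO.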
# [4] = molecular target: human Retinoid X Receptor beta (RXRb), RXRB (gene 6257) (UniProt P28702); assay: ATG_RXRb_TRANS: Attagene TRANS-FACTORIAL HepG2 Assay for human Retinoid X Receptor beta (RXRb) (AID 2283013)
# Outline: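 Transfect HepG2 with GAL4-UAS multi-reporter constructs (chimeric NR-Gal4, TRANS format); dose compound 24 h; isolate RNA, RT-PCR, FAM primer extension, HpaI digest; quantify by capillary electrophoresis; positive direction vs DMSO.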
# [5] = molecular target: Nuclear receptor subfamily 1 group I member 2 (Homo sapiens) (UniProt O75469); assay: ATG_PXR_TRANS: Attagene TRANS-FACTORIAL HepG2 Assay for human Pregnane X Receptor (PXR) (AID 2283008)
# Outline: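 Measures mRNA induction of a GAL4-UAS-driven reporter in human HepG2 cells transiently expressing PXR fused to Gal4, following 24 h treatment. DMSO served as negative control and baseline.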
# [6] = molecular target: human Thyroid Receptor alpha (THRa1), THRA (gene 7067) (UniProt P10827); assay: ATG_THRa1_TRANS: Attagene TRANS-FACTORIAL HepG2 Assay for human Thyroid Receptor alpha (THRa1) (AID 2283014)
# Outline: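 Measured here is mRNA from a GAL4-UAS reporter in transfected HepG2 cells carrying a Gal4-fused receptor, 24 h post-dose. DMSO served as negative control and baseline.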
# [7] = molecular target: human Vitamin D Receptor (VDR), VDR (gene 7421) (UniProt P11473); assay: ATG_VDR_TRANS: Attagene TRANS-FACTORIAL HepG2 Assay for human Vitamin D Receptor (VDR) (AID 2283022)
# Outline: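 Multiplexed TRANS reporter in HepG2; 24 h treatment; reporter mRNA by RT-PCR plus capillary electrophoresis; upregulation scored relative to DMSO.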
# [8] = molecular target: human Retinoic Acid Receptor gamma (RARg), RARG (gene 5916) (UniProt P13631); assay: ATG_RARg_TRANS: Attagene TRANS-FACTORIAL HepG2 Assay for human Retinoic Acid Receptor gamma (RARg) (AID 2283009);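 as to AC50: AC50 is for reporter induction above DMSO meaning RARg activation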
# Outline: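 Transient transfection of HepG2 with multi-reporter constructs, then 24 h chemical treatment. Total RNA isolated, reverse-transcribed, PCR-amplified, fluorescently labelled and resolved by capillary electrophoresis; activity scored as mRNA induction versus DMSO.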
# [9] = molecular target: human RAR-related Orphan Receptor beta (RORb), RORB (gene 6096) (UniProt Q92753); assay: ATG_RORb_TRANS: Attagene TRANS-FACTORIAL HepG2 Assay for human RAR-related Orphan Receptor beta (RORb) (AID 2283010);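 as to AC50: potency for increased reporter mRNA meaning activation of RORb-Gal4 chimera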
# Outline: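 Readout is reporter-gene mRNA induction, detected as fluorescence after RT-PCR and capillary electrophoresis, fitted for gain of signal against DMSO controls. Transiently transfected HepG2 liver cells carrying GAL4-UAS reporter constructs were treated for 24 hours.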
# [10] = molecular target: human CYP19A1, CYP19A1 (gene 1588) (UniProt P11511); assay: NVS_ADME_hCYP19A1: NovaScreen (NVS) CYP450-related Enzyme Activity (ADME) Assay for human CYP19A1 (AID 2283098);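 also: potency for inhibitors seen as loss of fluorescent enzyme signal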
# Outline: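 Biochem, cell-free; recombinant enzyme + specific substrate; fluorescence intensity at 0.5 h post-dose; 10 uM duplicate primary, conc. series for actives; acetonitrile = negative control/baseline; positive and negative controls on every plate.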
structure (smiles),measurement,setting,value
Nc1ccccc1N,outcome,[1],inactive
same,AC50,[2],inconclusive: 33.4 µM
same,outcome,[3],inactive
same,outcome,[4],inactive
COC(Cc1ccccc1)OC,AC50,[5],inconclusive: 49.5 µM
same,AC50,[8],inconclusive: 100 µM
same,outcome,[9],inactive
same,outcome,[2],inactive
same,AC50,[3],inconclusive: 100 µM
same,AC50,[4],inconclusive: 100 µM
CCCOc1sc(C(=O)N2CCC(c3cc(CN)ccc3F)CC2)c(C)c1Br,AC50,[1],active: 6.67 µM
same,AC50,[6],inconclusive: 0.0396 µM
same,AC50,[10],inconclusive: 0.0578 µM
O=C1Cc2ccccc2N1c1c(Cl)cccc1Cl,AC50,[5],active: 0.517 µM
same,AC50,[8],inconclusive: 60.7 µM
same,AC50,[9],inconclusive: 155 µM
C=C(C)C(=O)OCC(F)(F)C(F)(F)C(F)(F)C(F)F,outcome,[5],inactive
same,AC50,[8],inconclusive: 100 µM
same,AC50,[9],inconclusive: 100 µM
same,outcome,[2],inactive
same,outcome,[4],inactive
same,AC50,[6],inconclusive: 100 µM
CCCCCCCC(OC)OC,AC50,[5],inconclusive: 50 µM
same,AC50,[8],inconclusive: 50 µM
same,AC50,[9],inconclusive: 0.0412 µM
same,outcome,[2],inactive
same,AC50,[3],inconclusive: 50 µM
same,AC50,[4],inconclusive: 50 µM
same,AC50,[6],inconclusive: 50 µM
C=C(C)C(=O)OCC(F)(F)C(F)(F)C(F)(F)F,AC50,[5],inconclusive: 150 µM
same,AC50,[8],inconclusive: 150 µM
same,AC50,[9],inconclusive: 259 µM and inconclusive: 150 µM
same,AC50,[2],inconclusive: 150 µM
same,AC50,[3],inconclusive: 150 µM
same,outcome,[4],inactive
same,AC50,[6],inconclusive: 150 µM
same,AC50,[7],inconclusive: 150 µM
CC(=O)c1nccs1,AC50,[5],inconclusive: 100 µM
same,AC50,[8],inconclusive: 100 µM
same,AC50,[9],inconclusive: 100 µM
same,AC50,[2],inconclusive: 100 µM
same,AC50,[3],inconclusive: 100 µM
same,outcome,[4],inactive
same,AC50,[7],inconclusive: 57.2 µM
COC(=O)c1ccccc1S(=O)(=O)NC(=O)Nc1nc(OC(F)F)cc(OC(F)F)n1,AC50,[5],inconclusive: 50 µM
same,outcome,[8],inactive
same,AC50,[9],inconclusive: 50 µM
same,AC50,[2],inconclusive: 0.0129 µM
same,AC50,[3],inconclusive: 50 µM
same,AC50,[4],inconclusive: 0.166 µM
same,AC50,[6],inconclusive: 50 µM
O=C(O)CCC(F)(F)C(F)(F)C(F)(F)F,AC50,[5],inconclusive: 150 µM
same,AC50,[8],inconclusive: 150 µM
same,outcome,[9],inactive
same,AC50,[2],inconclusive: 150 µM
same,outcome,[3],inactive
same,AC50,[6],inconclusive: 150 µM

# Already shown: an excerpt of the list.
structure (smiles),measurement,setting,value
CC(=O)c1nccs1,AC50,[8],inconclusive: 100 µM
same,AC50,[9],inconclusive: 100 µM
same,AC50,[2],inconclusive: 100 µM
same,AC50,[3],inconclusive: 100 µM
same,outcome,[4],inactive
